Assay results from PMC4569737, “Involvement of a eukaryotic-like ubiquitin-related modifier in the proteasome pathway of the archaeon Sulfolobus acidocaldarius” (Nature Communications, 2015).
No constants are given. Whether binding was seen depends on the method and setting. Some entries that bind do so weakly or less than the wild type. Sequences can lack the tags named with a protein.

Key:
[1] = molecular target: T1, Saci0662ΔN, N-terminally truncated Saci0662 β-subunit (without the pro-peptide), His-tagged (S. acidocaldarius) (UniProt Q4JAY3); test: SEC; size exclusion chromatography of the IMAC-purified proteasome complexes; both purified
T1 sequence: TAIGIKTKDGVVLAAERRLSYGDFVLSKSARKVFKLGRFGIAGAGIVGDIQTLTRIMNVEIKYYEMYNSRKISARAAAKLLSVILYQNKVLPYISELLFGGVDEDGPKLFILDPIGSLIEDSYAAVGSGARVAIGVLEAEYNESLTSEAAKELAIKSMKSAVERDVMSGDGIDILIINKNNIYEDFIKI

[2] = molecular target: T1, Saci0662ΔN, N-terminally truncated Saci0662 β-subunit (without the pro-peptide), His-tagged (S. acidocaldarius); test: SEC-MALS; 100 μl protein complex at 2 mg/ml, Superdex 200 10/300 Increase GL, 20 mM Tris (pH 8.0), 300 mM NaCl, 25 °C; both purified
[3] = molecular target: T1, Saci0662ΔN, N-terminally truncated Saci0662 β-subunit (without the pro-peptide), His-tagged (S. acidocaldarius); test: negative-stain transmission electron microscopy; purified 20S complexes at 0.035 mg/ml on carbon-coated grids, 2% uranyl acetate; both purified
[4] = molecular target: T1, Saci0662ΔN, N-terminally truncated Saci0662 β-subunit (without the pro-peptide), His-tagged (S. acidocaldarius); test: co-purification on Ni-NTA IMAC after co-expression; untagged Saci0613 α co-expressed in E. coli with both Saci0662ΔN (His-tagged) and Saci0909ΔN; Ni-NTA agarose IMAC (Fig. 4a lane 5)

Measured: binding

B1: Saci0909ΔN, N-terminally truncated Saci0909 catalytic β-subunit (without the pro-peptide) (domain or fragment, UniProt Q4JAA8 11-203)
chain: TTTVGIKVKDGVVLAADRRASAGYYVAHKYVRKVLYVTDNIGITTAGSVADLQFIYEALKYIYHRNSITGEGPITVKGIATWLANVLSSSKYFPYLVQILIGGVDDQPRLYNLDYLGDITEEEYTATGSGSPEALGVLEDNYKPEMSLDEAAELAKRAIFSSIKRDSFTGTGVIVTKITKNGHEEKEYYITKR
binds: [1] | [2] | [3] | [4]

B2: Saci0613 20S proteasome α-subunit, untagged (natural protein, S. acidocaldarius, UniProt Q4JB24 1-242, looked up)
chain: MALGPAAMGYDRAITIFSPDGSLYQVDYAFEAVKRGWTTLGVKTKSGVVLLAEKRKATQLLDVDGIEKIFMLDDHVGCTFAGLASDGRILIDYARSQALQHRLIYDEPISIEYLTKVISDVKQAYTQHGGVRPFGVALIVGGIDKGKQPKLLMTEPSGQFMPYYAVAIGQGGYTATEYLEKNYKEDLDIQSTILLALRALMATLKPGEKLNYSSVEIGYADVDSGTFKKLTTEERSDLLQKI
notes: 20S proteasome α-subunit, S. acidocaldarius DSM639, Saci0613; also called Saci0613 α; 0613 α-subunit; source: E. coli Rosetta (DE3) pLysS, co-expressed with β-subunit(s); in heat-clarified lysate, and purified as part of the complex (Ni-NTA IMAC, size exclusion chromatography)
binds: [1] | [2] | [3] | [4]
